Measurements as given in US7579353B2, “Pyridinone derivatives against malaria” (Glaxo Group Limited, priority 2005, dated 2009).
Some entries share one result that the patent states for a list of compounds. At least one structure is not confirmed: it was looked up by name or label, or the drawing left a doubt.

System: Plasmodium falciparum
Assay: In vitro anti-malarial activity against Plasmodium falciparum, IC50 assay / [3H]-hypoxanthine incorporation assay
Format: cell-based
Details: parasitized red blood cells, 48 hours
Method: In Vitro Anti-malarial Activity Against Plasmodium falciparum
IC50 Assay/[^3H]-Hypoxanthine Assay
Plasmodium falciparum strains.
The culture medium comprised RPMI 1640 with 25 mM HEPES, sodium bicarbonate and glutamine (GIBCO™ cat. ref.: 52400), supplemented with 10% of pooled human sera AB (Irvine Scientific, cat. ref.: 5009) and HT supplement (0.15 mM hypoxanthine and 24 μM thymidine), (GIBCO™ cat. ref.: 41065). Human sera were decomplemented 30 min. at 56° C., aliquoted and stored frozen at −20° C. until use in this culture medium.
Red blood cells O+ stock suspensions were prepared from whole blood bags coming from incomplete blood donation, provided by the Spanish Red Cross (<25 days after sampling). This “whole blood” was aliquoted and stored at 4° C.
To prepare red blood cells for the assay, the whole blood was centrifuged and washed 3 times with RPMI without serum. The upper phase, containing white blood cells was removed. The washed red blood cells were kept as a 50% suspension in complete medium. […]
The parasitemia was calculated by counting the percentage of parasitized erythrocytes by optical microscopy. […] The glass slides were observed and counted with an optical microscope (Nikon, Eclipse E200) equipped with a 100× immersion oil objective. […]
4. In each plate, 2 columns were reserved for control wells: • Column 11: Positive control wells: PRBCs with 0.2% DMSO—(i) to determine DMSO solvent effect on parasite growth (at a final concentration of 0.2%) and (ii) to compare with cultures treated with test compounds. • Column 12 (comprising wells A12-H12): • A12-D12—Background value wells: Uninfected RBCs—blank control to obtain the background reading from RBCs without parasites. • E12-G12—Solvent effect wells: PRBCs without DMSO—to determine DMSO solvent effect on PRBCs by comparing these wells with column 11 wells. • H12-Non-radioactive well: PRBCs with cold hypoxanthine—(i) to carry out a thin blood film to determine parasitemia value after incubation by microscopy and (ii) to ensure that the parasites have grown properly during the assay. […]

CCCCOc1ccc(-c2ccc(-c3c(C)[nH]c(C)c(Cl)c3=O)cn2)cc1 [Example 59, 5-Chloro-2,6-dimethyl-6′-{[4-butyloxy]phenyl}-3,3′-bipyridin-4(1H)-one]
IC50: less than 125 ng/ml

CCCOc1ccc(-c2ccc(-c3c(C)[nH]c(C)c(Cl)c3=O)cn2)cc1Cl [Example 60, 5-Chloro-2,6-dimethyl-6′-{[3-chloro,4-propyloxy]phenyl}-3,3′-bipyridin-4(1H)-one]
IC50: less than 125 ng/ml

Cc1[nH]c(C)c(-c2ccc(-c3ccc(OC(C)C)cc3)nc2)c(=O)c1Cl [Example 61, 5-Chloro-2,6-dimethyl-6′-{[4-isopropyloxy]phenyl}-3,3′-bipyridin-4(1H)-one]
IC50: less than 125 ng/ml
